Source: patent publication US9220705B2, “Method of treating colorectal cancer” (priority 2013, dated 2015)
At least one compound was matched to its structure with a doubt left.

Key:
DNA = conditions: Kasparkova 2010, cited from earlier work
[1] = tested on: human ovarian A2780 cancer cell line; conditions: Kasparkova 2010; cited from earlier work
LoVo-OXP cells = experiment: Cellular platinum uptake by GF-AAS; assay type: cell-based, human; conditions: LoVo-OXP resistant cells, 5 μM, 6, 24, 48 h, FIG. 2 panel B, compared with LoVo
Procedure: LoVo and LoVo-OXP cells (2×10^6) were seeded in 75 cm^2 flasks in growth medium (20 ml). After 24 h, the medium was replaced and the cells incubated for different times (6, 24 or 48 h) in the presence of the tested complexes. Cell monolayers were washed twice with cold PBS and harvested. Samples were subjected to three freezing/thawing cycles at −80° C., and then vigorously vortexed. Aliquots were removed for the determination of protein content by the BioRad protein assay (BioRad). The samples were treated with 1 mL of highly pure nitric acid (Pt: ≦0.01 μg×kg^−1, TraceSELECT® Ultra, Sigma Chemical Co.) and transferred into a microwave teflon vessel. Subsequently, samples were submitted to a standard procedure using a speed wave MWS-3 Berghof instrument (Eningen, Germany). After cooling, each mineralized sample was analyzed for platinum by using a Varian AA Duo graphite furnace atomic absorption spectrometer (Varian, Palo Alto, Calif.; USA) at the wavelength of […]. The calibration curve was obtained using known concentrations of standard solutions purchased from Sigma Chemical Co.
It is well-known that cellular uptake is an important factor influencing drug efficacy. […] The intracellular platinum was quantified by means of GF-AAS analysis and the results, expressed as μg metal mg^−1 of cellular proteins, are summarized in FIG. 2.

[Cl][Pt]1([Cl])[NH]C2CCC(CC2)[NH]1 [Compound 1, [SP-4-2-(cis)]-dichloro(1,4-cyclohexanediamine-N,N′)platinum]
DNA bending for 1,2-GG-intrastrand cross-links (DNA): 32 ° | local DNA unwinding for 1,2-GG-intrastrand cross-links, fold greater than cisplatin (DNA): ca. 1.5 | DNA interstrand cross-linking efficiency (DNA; cell-free): 6% | cellular uptake, fold greater than cisplatin [1]: ca. 1.5 | intracellular platinum accumulation (LoVo-OXP cells): internalized with the same efficacy in LoVo as well as in LoVo-OXP cells
